From the supplement of paper PMC10849652
This is one part of the list.

The chains behind the UniProt entries cited, without tags or fusion partners. Where a name states a change or a piece, a line headed by the entry shows the natural chain unless it says otherwise.
UniProt Q9Y4L1: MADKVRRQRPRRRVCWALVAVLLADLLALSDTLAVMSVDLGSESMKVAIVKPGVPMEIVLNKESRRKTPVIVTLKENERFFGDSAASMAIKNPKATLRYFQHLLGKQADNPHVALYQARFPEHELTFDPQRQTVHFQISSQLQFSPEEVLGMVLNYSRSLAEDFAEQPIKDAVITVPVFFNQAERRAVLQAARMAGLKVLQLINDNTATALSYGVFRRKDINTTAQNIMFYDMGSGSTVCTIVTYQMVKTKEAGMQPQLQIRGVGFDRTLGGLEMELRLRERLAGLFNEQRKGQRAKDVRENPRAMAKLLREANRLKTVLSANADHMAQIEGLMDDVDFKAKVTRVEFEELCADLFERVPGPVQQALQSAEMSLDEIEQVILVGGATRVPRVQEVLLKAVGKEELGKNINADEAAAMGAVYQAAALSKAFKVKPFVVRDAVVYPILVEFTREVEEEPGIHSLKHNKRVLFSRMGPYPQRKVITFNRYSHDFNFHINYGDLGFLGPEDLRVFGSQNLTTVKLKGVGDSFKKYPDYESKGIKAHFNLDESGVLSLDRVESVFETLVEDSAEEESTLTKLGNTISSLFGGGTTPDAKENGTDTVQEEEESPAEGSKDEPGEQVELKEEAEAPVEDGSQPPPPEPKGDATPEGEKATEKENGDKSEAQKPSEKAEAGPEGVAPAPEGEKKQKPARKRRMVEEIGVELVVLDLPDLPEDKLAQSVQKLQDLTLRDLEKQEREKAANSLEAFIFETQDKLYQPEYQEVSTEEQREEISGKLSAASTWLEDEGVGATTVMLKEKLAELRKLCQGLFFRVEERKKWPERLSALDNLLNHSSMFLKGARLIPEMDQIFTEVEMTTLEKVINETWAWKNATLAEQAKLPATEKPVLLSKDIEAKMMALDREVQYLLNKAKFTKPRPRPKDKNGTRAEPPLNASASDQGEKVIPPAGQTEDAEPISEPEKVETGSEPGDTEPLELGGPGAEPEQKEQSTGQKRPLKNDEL
UniProt P34931, whole entry, looked up: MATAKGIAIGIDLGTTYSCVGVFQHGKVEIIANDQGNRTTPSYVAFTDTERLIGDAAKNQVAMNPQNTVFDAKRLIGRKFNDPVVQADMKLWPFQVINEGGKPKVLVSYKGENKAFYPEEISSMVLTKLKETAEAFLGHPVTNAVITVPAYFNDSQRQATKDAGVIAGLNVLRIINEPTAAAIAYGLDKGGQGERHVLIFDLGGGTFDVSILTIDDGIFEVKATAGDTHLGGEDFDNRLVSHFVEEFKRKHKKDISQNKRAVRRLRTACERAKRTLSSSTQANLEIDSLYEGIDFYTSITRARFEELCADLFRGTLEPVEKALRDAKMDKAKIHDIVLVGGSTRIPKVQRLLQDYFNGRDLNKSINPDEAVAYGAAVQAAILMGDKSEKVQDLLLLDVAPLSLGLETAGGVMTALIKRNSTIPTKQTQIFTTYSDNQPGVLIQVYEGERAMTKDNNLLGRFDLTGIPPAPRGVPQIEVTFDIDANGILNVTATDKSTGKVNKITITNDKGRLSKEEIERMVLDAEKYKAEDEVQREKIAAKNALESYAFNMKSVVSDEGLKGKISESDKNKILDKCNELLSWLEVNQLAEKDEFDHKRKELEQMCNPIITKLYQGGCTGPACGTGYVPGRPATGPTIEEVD
UniProt P08238, whole entry, looked up: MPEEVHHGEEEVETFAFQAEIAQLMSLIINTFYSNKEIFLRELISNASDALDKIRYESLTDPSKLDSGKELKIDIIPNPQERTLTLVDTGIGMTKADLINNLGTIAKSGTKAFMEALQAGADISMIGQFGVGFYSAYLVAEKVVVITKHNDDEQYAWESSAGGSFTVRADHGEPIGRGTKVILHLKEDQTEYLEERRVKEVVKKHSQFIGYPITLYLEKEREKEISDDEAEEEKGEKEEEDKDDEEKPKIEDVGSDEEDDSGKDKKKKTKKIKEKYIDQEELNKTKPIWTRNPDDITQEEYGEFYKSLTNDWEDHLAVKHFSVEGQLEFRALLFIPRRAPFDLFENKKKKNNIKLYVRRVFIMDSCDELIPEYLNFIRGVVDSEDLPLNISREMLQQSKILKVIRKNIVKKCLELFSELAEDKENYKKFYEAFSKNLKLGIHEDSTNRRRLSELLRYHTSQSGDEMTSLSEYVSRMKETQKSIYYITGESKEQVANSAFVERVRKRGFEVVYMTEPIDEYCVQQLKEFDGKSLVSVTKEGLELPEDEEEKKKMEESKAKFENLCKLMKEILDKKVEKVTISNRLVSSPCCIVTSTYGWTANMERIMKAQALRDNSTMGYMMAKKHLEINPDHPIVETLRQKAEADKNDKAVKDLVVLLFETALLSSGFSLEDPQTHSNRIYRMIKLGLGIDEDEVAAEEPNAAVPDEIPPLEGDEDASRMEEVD
UniProt P17096: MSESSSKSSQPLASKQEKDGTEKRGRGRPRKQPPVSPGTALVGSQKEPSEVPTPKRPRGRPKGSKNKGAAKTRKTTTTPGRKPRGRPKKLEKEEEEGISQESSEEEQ
UniProt Q92598: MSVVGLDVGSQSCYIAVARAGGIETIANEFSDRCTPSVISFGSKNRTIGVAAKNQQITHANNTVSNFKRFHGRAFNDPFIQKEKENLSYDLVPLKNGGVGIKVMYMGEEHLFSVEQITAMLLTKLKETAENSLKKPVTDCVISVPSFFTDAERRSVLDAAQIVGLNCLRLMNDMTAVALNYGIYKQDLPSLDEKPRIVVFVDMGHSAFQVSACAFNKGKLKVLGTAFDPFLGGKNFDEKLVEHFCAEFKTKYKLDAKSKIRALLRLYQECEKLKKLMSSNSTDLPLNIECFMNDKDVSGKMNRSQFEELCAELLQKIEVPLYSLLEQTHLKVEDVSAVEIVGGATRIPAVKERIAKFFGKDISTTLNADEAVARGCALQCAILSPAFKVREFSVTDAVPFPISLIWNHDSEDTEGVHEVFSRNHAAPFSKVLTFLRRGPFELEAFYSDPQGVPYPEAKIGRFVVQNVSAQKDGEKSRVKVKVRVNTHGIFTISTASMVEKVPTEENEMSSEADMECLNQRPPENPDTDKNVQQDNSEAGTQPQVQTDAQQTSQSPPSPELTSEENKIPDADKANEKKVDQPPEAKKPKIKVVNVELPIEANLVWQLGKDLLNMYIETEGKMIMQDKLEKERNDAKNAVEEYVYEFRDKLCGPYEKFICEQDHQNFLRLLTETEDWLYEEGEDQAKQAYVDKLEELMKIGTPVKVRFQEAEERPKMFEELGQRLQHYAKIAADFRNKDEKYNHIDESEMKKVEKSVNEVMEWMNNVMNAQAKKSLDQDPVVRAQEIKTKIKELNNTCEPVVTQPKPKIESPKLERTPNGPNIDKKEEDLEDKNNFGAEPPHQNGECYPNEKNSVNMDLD
UniProt Q00839, whole entry, looked up: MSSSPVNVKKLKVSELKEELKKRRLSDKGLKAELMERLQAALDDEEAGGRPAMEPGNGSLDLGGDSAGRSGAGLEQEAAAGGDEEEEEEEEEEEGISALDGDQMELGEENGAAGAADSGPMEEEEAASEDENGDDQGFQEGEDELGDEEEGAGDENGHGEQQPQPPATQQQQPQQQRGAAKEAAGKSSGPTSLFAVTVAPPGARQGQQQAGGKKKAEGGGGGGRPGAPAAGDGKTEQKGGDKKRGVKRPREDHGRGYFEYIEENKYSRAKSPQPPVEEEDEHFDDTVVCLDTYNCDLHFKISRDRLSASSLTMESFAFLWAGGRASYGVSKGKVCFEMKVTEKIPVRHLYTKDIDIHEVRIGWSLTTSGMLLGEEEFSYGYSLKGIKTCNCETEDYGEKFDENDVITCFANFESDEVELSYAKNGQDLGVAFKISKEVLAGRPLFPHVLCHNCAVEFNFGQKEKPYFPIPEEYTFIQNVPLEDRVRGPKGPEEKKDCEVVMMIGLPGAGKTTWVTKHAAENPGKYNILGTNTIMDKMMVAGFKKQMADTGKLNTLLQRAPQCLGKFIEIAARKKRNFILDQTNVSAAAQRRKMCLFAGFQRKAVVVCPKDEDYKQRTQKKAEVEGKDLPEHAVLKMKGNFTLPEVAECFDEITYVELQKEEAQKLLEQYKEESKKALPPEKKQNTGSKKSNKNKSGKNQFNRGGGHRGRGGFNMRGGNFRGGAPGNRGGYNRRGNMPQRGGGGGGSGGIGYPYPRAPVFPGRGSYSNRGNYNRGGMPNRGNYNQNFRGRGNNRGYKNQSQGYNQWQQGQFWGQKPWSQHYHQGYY
UniProt Q9BX68: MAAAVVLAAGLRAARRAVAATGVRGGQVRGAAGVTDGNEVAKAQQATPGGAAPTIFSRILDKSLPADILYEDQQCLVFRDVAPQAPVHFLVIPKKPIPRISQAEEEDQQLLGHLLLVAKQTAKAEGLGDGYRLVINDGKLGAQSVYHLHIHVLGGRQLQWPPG
UniProt Q9Y547: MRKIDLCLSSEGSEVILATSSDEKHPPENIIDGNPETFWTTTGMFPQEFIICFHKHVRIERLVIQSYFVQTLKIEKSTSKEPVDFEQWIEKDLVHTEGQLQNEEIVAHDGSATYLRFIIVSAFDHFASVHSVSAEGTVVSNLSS
UniProt Q2TB90: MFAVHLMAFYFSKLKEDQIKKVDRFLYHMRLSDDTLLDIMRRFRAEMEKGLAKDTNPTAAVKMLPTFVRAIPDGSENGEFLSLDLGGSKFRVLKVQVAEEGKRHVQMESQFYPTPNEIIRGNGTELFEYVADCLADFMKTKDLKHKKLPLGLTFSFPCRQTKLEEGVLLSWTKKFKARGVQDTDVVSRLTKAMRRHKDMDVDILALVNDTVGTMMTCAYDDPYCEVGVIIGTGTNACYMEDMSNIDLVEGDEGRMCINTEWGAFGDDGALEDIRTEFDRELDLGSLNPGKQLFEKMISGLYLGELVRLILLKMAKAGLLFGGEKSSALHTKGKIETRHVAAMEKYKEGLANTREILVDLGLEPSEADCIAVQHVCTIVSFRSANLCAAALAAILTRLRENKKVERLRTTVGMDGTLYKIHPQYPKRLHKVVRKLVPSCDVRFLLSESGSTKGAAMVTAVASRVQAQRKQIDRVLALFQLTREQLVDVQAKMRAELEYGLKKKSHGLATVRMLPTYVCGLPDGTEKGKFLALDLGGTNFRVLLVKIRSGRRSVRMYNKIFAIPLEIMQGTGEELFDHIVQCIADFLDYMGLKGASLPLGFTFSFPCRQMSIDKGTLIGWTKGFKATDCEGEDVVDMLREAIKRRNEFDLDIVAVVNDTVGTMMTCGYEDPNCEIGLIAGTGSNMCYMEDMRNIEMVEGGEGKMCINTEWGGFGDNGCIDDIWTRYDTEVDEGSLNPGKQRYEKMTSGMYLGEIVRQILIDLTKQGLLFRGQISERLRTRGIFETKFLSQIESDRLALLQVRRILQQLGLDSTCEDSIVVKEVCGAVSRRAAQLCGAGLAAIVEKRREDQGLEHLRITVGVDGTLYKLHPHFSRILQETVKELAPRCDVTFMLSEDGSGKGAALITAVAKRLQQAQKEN
UniProt Q7LGA3: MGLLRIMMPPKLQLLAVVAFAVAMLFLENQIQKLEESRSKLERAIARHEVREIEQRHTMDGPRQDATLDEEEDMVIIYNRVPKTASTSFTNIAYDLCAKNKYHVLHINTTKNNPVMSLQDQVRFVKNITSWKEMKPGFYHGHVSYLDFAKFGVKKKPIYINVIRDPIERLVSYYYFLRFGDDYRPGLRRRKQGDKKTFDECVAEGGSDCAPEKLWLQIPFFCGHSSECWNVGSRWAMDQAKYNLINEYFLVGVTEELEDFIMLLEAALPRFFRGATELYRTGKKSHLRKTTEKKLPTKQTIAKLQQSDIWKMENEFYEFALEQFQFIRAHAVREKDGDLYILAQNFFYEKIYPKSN
UniProt O95757: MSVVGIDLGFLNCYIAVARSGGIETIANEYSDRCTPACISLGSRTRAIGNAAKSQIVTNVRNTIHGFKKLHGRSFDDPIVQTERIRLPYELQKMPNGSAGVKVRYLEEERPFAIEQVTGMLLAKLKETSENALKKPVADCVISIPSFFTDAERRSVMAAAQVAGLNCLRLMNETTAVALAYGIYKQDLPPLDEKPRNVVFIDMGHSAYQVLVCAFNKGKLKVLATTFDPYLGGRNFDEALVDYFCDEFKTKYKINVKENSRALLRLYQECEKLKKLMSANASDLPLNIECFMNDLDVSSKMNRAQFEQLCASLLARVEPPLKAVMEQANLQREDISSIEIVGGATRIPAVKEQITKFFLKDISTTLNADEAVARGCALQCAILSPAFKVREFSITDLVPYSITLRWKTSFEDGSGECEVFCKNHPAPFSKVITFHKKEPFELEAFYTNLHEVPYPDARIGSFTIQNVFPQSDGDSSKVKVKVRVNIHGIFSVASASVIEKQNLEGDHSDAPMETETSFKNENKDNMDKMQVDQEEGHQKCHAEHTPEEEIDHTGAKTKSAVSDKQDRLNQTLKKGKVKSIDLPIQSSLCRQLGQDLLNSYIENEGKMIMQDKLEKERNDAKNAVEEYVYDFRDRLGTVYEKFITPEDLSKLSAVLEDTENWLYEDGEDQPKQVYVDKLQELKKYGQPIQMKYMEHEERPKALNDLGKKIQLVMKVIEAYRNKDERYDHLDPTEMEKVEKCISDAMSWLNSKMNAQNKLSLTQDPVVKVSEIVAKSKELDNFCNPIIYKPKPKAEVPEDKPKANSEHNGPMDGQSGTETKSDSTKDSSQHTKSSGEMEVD

compound: COc1cc(C(=O)O)ccc1NC(=O)[C@@H]1N[C@@H](CC(C)(C)C)[C@](C#N)(c2ccc(Cl)cc2F)[C@H]1c1cccc(Cl)c1F [idasanutlin]; experiment: log2 fold change, soluble protein after heating vs DMSO (PISA); higher = thermal stabilisation; K562 cells, 10 uM, 30 min; active = over 0.2 and 3.5 SD of the protein, either way, in both replicates (recomputed)
How it was run: (§1)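 Soluble protein was defined as the supernatant after 21,000xg for 90 min. It came from K562 cells at 2×10^6 cells/mL given 10 μM compound for 30 min, heated in aliquots for 3 min across 48°C-58°C, pooled, and extracted in PBS with 0.5% NP-40 at 4°C, and was quantified by TMTpro 16plex LC-MS/MS with equalised channel sums. Thermal stability against control samples, from duplicates, is reported as log2 fold change.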

log2 fold change, inactive:
HNRNPLL (UniProt Q8WVV9) -0.049
HYOU1 (UniProt Q9Y4L1) 0.032
HSPA1L (UniProt P34931) 0.118
HSP90AB1 (UniProt P08238) -0.028
HMGA1 (UniProt P17096) 0.299
HMGCR isoform 3 (UniProt P04035) 0.188
HSPH1 (UniProt Q92598) -0.023
HIST2H2BF isoform 2 (UniProt Q5QNW6) 0.437
HNRNPU (UniProt Q00839) 0.172
HINT2 (UniProt Q9BX68) 0.062
HOMER1 (UniProt Q86YM7) 0.011
HSPB11 (UniProt Q9Y547) -0.058
HKDC1 (UniProt Q2TB90) -0.089
HUWE1 (UniProt Q7Z6Z7) -0.077
HMG20A (UniProt Q9NP66) -0.21
HMGB3 (UniProt O15347) 0.045
HSPA14 (UniProt Q0VDF9) 0.02
IARS (UniProt P41252) 0.111
HTATIP2 isoform 3 (UniProt Q9BUP3) -0.031
HNRNPK isoform 2 (UniProt P61978) -0.011
HS2ST1 (UniProt Q7LGA3) -0.041
HK2 (UniProt P52789) -0.064
IDE (UniProt P14735) -0.02
HNRNPD isoform 4 (UniProt Q14103) 0.051
IARS2 (UniProt Q9NSE4) -0.04
HNRNPC isoform 2 (UniProt P07910) 0.796
HNRNPF (UniProt P52597) 0.073
HINT3 (UniProt Q9NQE9) 0.06
HSPA4L (UniProt O95757) -0.039
HIST2H3A (UniProt Q71DI3) 0.508
HMGN2 (UniProt P05204) 0.041
HMOX2 (UniProt P30519) 0.148
HSPG2 (UniProt P98160) -0.028

compound: COc1cc(Nc2ncc3c(n2)-c2ccc(Cl)cc2C(c2c(F)cccc2OC)=NC3)ccc1C(=O)O [alisertib]; experiment: as above
How it was run: as §1

log2 fold change, inactive:
HNRNPLL (UniProt Q8WVV9) 0.109
HYOU1 (UniProt Q9Y4L1) -0.098
HSPA1L (UniProt P34931) -0.084
HSP90AB1 (UniProt P08238) -0.042
HMGA1 (UniProt P17096) -0.022
HMGCR isoform 3 (UniProt P04035) -0.146
HSPH1 (UniProt Q92598) -0.031
HIST2H2BF isoform 2 (UniProt Q5QNW6) 0.081
HNRNPU (UniProt Q00839) -0.055
HINT2 (UniProt Q9BX68) 0.003
HOMER1 (UniProt Q86YM7) -0.083
HSPB11 (UniProt Q9Y547) -0.019
HKDC1 (UniProt Q2TB90) -0.044
HUWE1 (UniProt Q7Z6Z7) -0.073
HMG20A (UniProt Q9NP66) -0.016
HMGB3 (UniProt O15347) -0.064
HSPA14 (UniProt Q0VDF9) -0.07
IARS (UniProt P41252) -0.089
HTATIP2 isoform 3 (UniProt Q9BUP3) -0.029
HNRNPK isoform 2 (UniProt P61978) -0.004
HS2ST1 (UniProt Q7LGA3) -0.081
HK2 (UniProt P52789) -0.124
IDE (UniProt P14735) 0.371
HNRNPD isoform 4 (UniProt Q14103) -0.176
IARS2 (UniProt Q9NSE4) -0.05
HNRNPC isoform 2 (UniProt P07910) -0.052
HNRNPF (UniProt P52597) 0.03
HINT3 (UniProt Q9NQE9) -0.125
HSPA4L (UniProt O95757) -0.01
HIST2H3A (UniProt Q71DI3) 0.001
HMGN2 (UniProt P05204) -0.028
HMOX2 (UniProt P30519) -0.03
HSPG2 (UniProt P98160) -0.007

compound: COc1cc2nc(-c3cc(F)ccc3O)nc(N[C@@H]3CNC[C@H]3C(C)(C)O)c2cc1OC; experiment: as above
How it was run: as §1

log2 fold change, inactive:
HNRNPLL (UniProt Q8WVV9) -0.089
HYOU1 (UniProt Q9Y4L1) -0.038
HSPA1L (UniProt P34931) 0.051
HSP90AB1 (UniProt P08238) -0.039
HMGA1 (UniProt P17096) -0.146
HMGCR isoform 3 (UniProt P04035) 0.166
HSPH1 (UniProt Q92598) 0.026
HIST2H2BF isoform 2 (UniProt Q5QNW6) -0.112
HNRNPU (UniProt Q00839) -0.014
HINT2 (UniProt Q9BX68) -0.079
HOMER1 (UniProt Q86YM7) -0.023
HSPB11 (UniProt Q9Y547) -0.058
HKDC1 (UniProt Q2TB90) 0.062
HUWE1 (UniProt Q7Z6Z7) -0.023
HMG20A (UniProt Q9NP66) 0.147
HMGB3 (UniProt O15347) -0.031
HSPA14 (UniProt Q0VDF9) 0.042
IARS (UniProt P41252) 0
HTATIP2 isoform 3 (UniProt Q9BUP3) -0.131
HNRNPK isoform 2 (UniProt P61978) -0.035
HS2ST1 (UniProt Q7LGA3) 0.035
HK2 (UniProt P52789) 0.097
IDE (UniProt P14735) 0.095
HNRNPD isoform 4 (UniProt Q14103) -0.151
IARS2 (UniProt Q9NSE4) -0.016
HNRNPC isoform 2 (UniProt P07910) -0.041
HNRNPF (UniProt P52597) -0.036
HINT3 (UniProt Q9NQE9) -0.112
HSPA4L (UniProt O95757) 0.035
HIST2H3A (UniProt Q71DI3) -0.106
HMGN2 (UniProt P05204) 0.073
HMOX2 (UniProt P30519) 0.036
HSPG2 (UniProt P98160) -0.03
